Experimental data from doi:10.1101/2023.06.08.544225.
No constants are given. Whether binding was seen depends on the method and setting. In cells and extracts the contact can be indirect. A yes stands for co-enrichment or nearness to the bait. Other partners may have been found.

Chains of the proteins cited; added tags and fusions are not shown.
UniProt O75643: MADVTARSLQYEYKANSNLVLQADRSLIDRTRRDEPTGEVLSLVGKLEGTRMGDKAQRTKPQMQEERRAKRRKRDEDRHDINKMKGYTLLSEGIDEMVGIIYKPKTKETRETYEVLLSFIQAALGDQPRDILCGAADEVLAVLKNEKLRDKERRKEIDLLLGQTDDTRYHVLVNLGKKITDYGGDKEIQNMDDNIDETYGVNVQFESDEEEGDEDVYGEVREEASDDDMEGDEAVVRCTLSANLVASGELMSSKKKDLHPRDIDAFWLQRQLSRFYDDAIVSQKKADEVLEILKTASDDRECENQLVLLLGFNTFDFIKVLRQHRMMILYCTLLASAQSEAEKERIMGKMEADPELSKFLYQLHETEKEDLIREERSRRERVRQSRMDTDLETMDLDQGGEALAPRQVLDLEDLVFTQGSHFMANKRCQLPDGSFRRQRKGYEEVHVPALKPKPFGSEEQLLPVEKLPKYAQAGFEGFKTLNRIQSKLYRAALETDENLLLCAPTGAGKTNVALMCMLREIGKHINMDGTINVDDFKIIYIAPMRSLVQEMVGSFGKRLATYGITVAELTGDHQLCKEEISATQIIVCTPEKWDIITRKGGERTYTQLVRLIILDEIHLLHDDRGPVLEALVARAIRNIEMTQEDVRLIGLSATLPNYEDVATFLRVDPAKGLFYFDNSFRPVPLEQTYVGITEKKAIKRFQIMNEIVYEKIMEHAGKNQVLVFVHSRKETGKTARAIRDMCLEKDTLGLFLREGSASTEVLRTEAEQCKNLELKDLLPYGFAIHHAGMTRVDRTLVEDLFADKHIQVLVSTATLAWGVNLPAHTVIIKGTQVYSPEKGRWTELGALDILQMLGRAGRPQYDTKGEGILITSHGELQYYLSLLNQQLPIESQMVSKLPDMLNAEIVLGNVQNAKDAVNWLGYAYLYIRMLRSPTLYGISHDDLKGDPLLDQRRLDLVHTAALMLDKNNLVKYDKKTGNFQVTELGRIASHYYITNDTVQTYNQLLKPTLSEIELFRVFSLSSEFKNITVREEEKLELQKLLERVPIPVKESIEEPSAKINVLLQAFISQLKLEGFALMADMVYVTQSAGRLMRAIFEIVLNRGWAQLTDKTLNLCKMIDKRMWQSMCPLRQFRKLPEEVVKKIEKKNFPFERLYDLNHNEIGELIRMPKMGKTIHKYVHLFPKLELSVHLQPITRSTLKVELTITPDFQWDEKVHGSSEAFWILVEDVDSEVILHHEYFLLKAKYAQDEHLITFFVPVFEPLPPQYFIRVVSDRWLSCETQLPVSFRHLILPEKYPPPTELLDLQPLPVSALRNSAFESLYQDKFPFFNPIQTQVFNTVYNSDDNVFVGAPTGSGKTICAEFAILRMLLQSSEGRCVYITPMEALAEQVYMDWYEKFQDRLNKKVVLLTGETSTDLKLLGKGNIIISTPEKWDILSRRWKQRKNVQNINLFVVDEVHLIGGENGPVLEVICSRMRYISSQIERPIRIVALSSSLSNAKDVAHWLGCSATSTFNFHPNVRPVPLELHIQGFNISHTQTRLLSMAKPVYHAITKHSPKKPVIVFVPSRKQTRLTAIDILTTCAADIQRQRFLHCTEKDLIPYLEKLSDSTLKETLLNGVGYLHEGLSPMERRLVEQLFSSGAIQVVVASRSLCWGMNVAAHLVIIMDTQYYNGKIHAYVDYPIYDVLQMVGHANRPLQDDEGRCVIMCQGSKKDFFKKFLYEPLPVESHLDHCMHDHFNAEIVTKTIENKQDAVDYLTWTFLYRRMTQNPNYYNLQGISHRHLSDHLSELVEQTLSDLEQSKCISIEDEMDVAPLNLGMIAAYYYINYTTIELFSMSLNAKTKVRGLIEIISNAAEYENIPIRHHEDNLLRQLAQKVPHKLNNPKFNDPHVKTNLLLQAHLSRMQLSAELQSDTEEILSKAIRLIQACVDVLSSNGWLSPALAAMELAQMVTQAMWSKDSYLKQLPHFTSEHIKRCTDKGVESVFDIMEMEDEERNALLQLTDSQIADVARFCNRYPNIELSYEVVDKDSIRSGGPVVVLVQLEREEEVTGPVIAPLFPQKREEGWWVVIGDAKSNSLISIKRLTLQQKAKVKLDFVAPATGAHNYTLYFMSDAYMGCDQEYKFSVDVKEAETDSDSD
UniProt Q13283: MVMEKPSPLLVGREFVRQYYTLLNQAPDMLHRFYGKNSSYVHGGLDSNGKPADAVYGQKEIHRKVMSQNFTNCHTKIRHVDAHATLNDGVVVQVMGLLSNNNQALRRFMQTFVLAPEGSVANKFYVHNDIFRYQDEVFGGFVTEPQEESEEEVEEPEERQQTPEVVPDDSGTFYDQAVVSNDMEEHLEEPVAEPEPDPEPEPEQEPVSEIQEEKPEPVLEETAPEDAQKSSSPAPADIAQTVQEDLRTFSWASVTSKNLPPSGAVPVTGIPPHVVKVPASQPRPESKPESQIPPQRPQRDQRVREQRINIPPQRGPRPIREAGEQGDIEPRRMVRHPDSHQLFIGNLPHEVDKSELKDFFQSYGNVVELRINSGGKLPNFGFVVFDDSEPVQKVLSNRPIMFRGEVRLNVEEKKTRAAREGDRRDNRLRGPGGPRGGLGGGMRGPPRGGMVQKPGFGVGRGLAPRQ

Assays:
[1] = target: SNRNP200 (human (endogenous in HEK293XT)) (UniProt O75643); test: affinity purification with mass spectrometry; IP of the endogenous bait (10 µg antibody on Dynabeads Protein G, overnight 4°C) from HEK293XT lysate (150 mM NaCl, 50 mM Tris pH 7.5, 1% IGPAL-CA-630, 5% glycerol), triplicate, TMT11 LC-MS/MS; hit found in both arms, with and without RNase ('direct'), or arm not told
[2] = target: T1, HNRNPL (human (endogenous in HEK293XT)) (UniProt P14866); test: as above
T1 sequence: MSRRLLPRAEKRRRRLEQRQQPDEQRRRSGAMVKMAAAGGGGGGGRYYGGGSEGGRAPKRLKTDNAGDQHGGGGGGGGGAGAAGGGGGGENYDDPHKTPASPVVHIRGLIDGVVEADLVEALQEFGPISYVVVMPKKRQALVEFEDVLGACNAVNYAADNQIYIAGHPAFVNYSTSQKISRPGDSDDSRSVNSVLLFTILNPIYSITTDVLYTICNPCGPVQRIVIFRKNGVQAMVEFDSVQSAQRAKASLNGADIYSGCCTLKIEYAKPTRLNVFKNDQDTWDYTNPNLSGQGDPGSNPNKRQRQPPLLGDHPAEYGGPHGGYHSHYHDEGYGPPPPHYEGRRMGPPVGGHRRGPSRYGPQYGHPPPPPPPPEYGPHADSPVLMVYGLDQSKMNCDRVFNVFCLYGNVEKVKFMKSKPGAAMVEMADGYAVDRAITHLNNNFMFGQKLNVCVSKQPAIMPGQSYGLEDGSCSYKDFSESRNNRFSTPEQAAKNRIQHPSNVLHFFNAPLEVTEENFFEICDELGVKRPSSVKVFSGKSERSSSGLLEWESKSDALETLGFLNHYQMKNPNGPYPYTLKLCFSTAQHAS

[3] = target: SNRNP200 (human (endogenous in HEK293XT)) (UniProt O75643); test: as above; remark: listed apart in the source
[4] = target: SNRNP200 (human (endogenous in HEK293XT)) (UniProt O75643); test: affinity purification with mass spectrometry; same IP-MS, arm with RNase treatment of the HEK293XT lysate (5 µl of 10 mg/ml RNase per ~200 µl, 20 min on ice); hits found only here are called 'RNA-shielded'

## G3BP1 (from UniProt Q13283 1-466)
[1]
  binding: binds

B1: MATR3 (protein, UniProt P43243 1-847)
chain: MSKSFQQSSLSRDSQGHGRDLSAAGIGLLAAATQSLSMPASLGRMNQGTARLASLMNLGMSSSLNQQGAHSALSSASTSSHNLQSIFNIGSRGPLPLSSQHRGDADQASNILASFGLSARDLDELSRYPEDKITPENLPQILLQLKRRRTEEGPTLSYGRDGRSATREPPYRVPRDDWEEKRHFRRDSFDDRGPSLNPVLDYDHGSRSQESGYYDRMDYEDDRLRDGERCRDDSFFGETSHNYHKFDSEYERMGRGPGPLQERSLFEKKRGAPPSSNIEDFHGLLPKGYPHLCSICDLPVHSNKEWSQHINGASHSRRCQLLLEIYPEWNPDNDTGHTMGDPFMLQQSTNPAPGILGPPPPSFHLGGPAVGPRGNLGAGNGNLQGPRHMQKGRVETSRVVHIMDFQRGKNLRYQLLQLVEPFGVISNHLILNKINEAFIEMATTEDAQAAVDYYTTTPALVFGKPVRVHLSQKYKRIKKPEGKPDQKFDQKQELGRVIHLSNLPHSGYSDSAVLKLAEPYGKIKNYILMRMKSQAFIEMETREDAMAMVDHCLKKALWFQGRCVKVDLSEKYKKLVLRIPNRGIDLLKKDKSRKRSYSPDGKESPSDKKSKTDGSQKTESSTEGKEQEEKSGEDGEKDTKDDQTEQEPNMLLESEDELLVDEEEAAALLESGSSVGDETDLANLGDVASDGKKEPSDKAVKKDGSASAAAKKKLKKVDKIEELDQENEAALENGIKNEENTEPGAESSENADDPNKDTSENADGQSDENKDDYTIPDEYRIGPYQPNVPVGIDYVIPKTGFYCKLCSLFYTNEEVAKNTHCSSLPHYQKLKKFLNKLAEERRQKKET
[2]
  binding: binds

B2: ILF3 (protein, UniProt Q12906 1-894)
chain: MRPMRIFVNDDRHVMAKHSSVYPTQEELEAVQNMVSHTERALKAVSDWIDEQEKGSSEQAESDNMDVPPEDDSKEGAGEQKTEHMTRTLRGVMRVGLVAKGLLLKGDLDLELVLLCKEKPTTALLDKVADNLAIQLAAVTEDKYEILQSVDDAAIVIKNTKEPPLSLTIHLTSPVVREEMEKVLAGETLSVNDPPDVLDRQKCLAALASLRHAKWFQARANGLKSCVIVIRVLRDLCTRVPTWGPLRGWPLELLCEKSIGTANRPMGAGEALRRVLECLASGIVMPDGSGIYDPCEKEATDAIGHLDRQQREDITQSAQHALRLAAFGQLHKVLGMDPLPSKMPKKPKNENPVDYTVQIPPSTTYAITPMKRPMEEDGEEKSPSKKKKKIQKKEEKAEPPQAMNALMRLNQLKPGLQYKLVSQTGPVHAPIFTMSVEVDGNSFEASGPSKKTAKLHVAVKVLQDMGLPTGAEGRDSSKGEDSAEETEAKPAVVAPAPVVEAVSTPSAAFPSDATAEQGPILTKHGKNPVMELNEKRRGLKYELISETGGSHDKRFVMEVEVDGQKFQGAGSNKKVAKAYAALAALEKLFPDTPLALDANKKKRAPVPVRGGPKFAAKPHNPGFGMGGPMHNEVPPPPNLRGRGRGGSIRGRGRGRGFGGANHGGYMNAGAGYGSYGYGGNSATAGYSQFYSNGGHSGNASGGGGGGGGGSSGYGSYYQGDNYNSPVPPKHAGKKQPHGGQQKPSYGSGYQSHQGQQQSYNQSPYSNYGPPQGKQKGYNHGQGSYSYSNSYNSPGGGGGSDYNYESKFNYSGSGGRSGGNSYGSGGASYNPGSHGGYGGGSGGGSSYQGKQGGYSQSNYNSPGSGQNYSGPPSSYQSSQGGYGRNADHSMNYQYR
[2]
  binding: binds

B3: CSTF2 (protein, UniProt P33240 1-577)
chain: MAGLTVRDPAVDRSLRSVFVGNIPYEATEEQLKDIFSEVGPVVSFRLVYDRETGKPKGYGFCEYQDQETALSAMRNLNGREFSGRALRVDNAASEKNKEELKSLGTGAPVIESPYGETISPEDAPESISKAVASLPPEQMFELMKQMKLCVQNSPQEARNMLLQNPQLAYALLQAQVVMRIVDPEIALKILHRQTNIPTLIAGNPQPVHGAGPGSGSNVSMNQQNPQAPQAQSLGGMHVNGAPPLMQASMQGGVPAPGQMPAAVTGPGPGSLAPGGGMQAQVGMPGSGPVSMERGQVPMQDPRAAMQRGSLPANVPTPRGLLGDAPNDPRGGTLLSVTGEVEPRGYLGPPHQGPPMHHVPGHESRGPPPHELRGGPLPEPRPLMAEPRGPMLDQRGPPLDGRGGRDPRGIDARGMEARAMEARGLDARGLEARAMEARAMEARAMEARAMEARAMEVRGMEARGMDTRGPVPGPRGPIPSGMQGPSPINMGAVVPQGSRQVPVMQGTGMQGASIQGGSQPGGFSPGQNQVTPQDHEKAALIMQVLQLTADQIAMLPPEQRQSILILKEQIQKSTGAP
[2]
  binding: binds

B4: CD2BP2 (protein, UniProt O95400 1-341)
chain: MPKRKVTFQGVGDEEDEDEIIVPKKKLVDPVAGSGGPGSRFKGKHSLDSDEEEDDDDGGSSKYDILASEDVEGQEAATLPSEGGVRITPFNLQEEMEEGHFDADGNYFLNRDAQIRDSWLDNIDWVKIRERPPGQRQASDSEEEDSLGQTSMSAQALLEGLLELLLPRETVAGALRRLGARGGGKGRKGPGQPSSPQRLDRLSGLADQMVARGNLGVYQETRERLAMRLKGLGCQTLGPHNPTPPPSLDMFAEELAEEELETPTPTQRGEAESRGDGLVDVMWEYKWENTGDAELYGPFTSAQMQTWVSEGYFPDGVYCRKLDPPGGQFYNSKRIDFDLYT
[3]
  binding: binds

B5: AQR (protein, UniProt O60306 1-1485)
chain: MAAPAQPKKIVAPTVSQINAEFVTQLACKYWAPHIKKKSPFDIKVIEDIYEKEIVKSRFAIRKIMLLEFSQYLENYLWMNYSPEVSSKAYLMSICCMVNEKFRENVPAWEIFKKKPDHFPFFFKHILKAALAETDGEFSLHEQTVLLLFLDHCFNSLEVDLIRSQVQQLISLPMWMGLQLARLELELKKTPKLRKFWNLIKKNDEKMDPEAREQAYQERRFLSQLIQKFISVLKSVPLSEPVTMDKVHYCERFIELMIDLEALLPTRRWFNTILDDSHLLVHCYLSNLVRREEDGHLFSQLLDMLKFYTGFEINDQTGNALTENEMTTIHYDRITSLQRAAFAHFPELYDFALSNVAEVDTRESLVKFFGPLSSNTLHQVASYLCLLPTLPKNEDTTFDKEFLLELLVSRHERRISQIQQLNQMPLYPTEKIIWDENIVPTEYYSGEGCLALPKLNLQFLTLHDYLLRNFNLFRLESTYEIRQDIEDSVSRMKPWQSEYGGVVFGGWARMAQPIVAFTVVEVAKPNIGENWPTRVRADVTINLNVRDHIKDEWEGLRKHDVCFLITVRPTKPYGTKFDRRRPFIEQVGLVYVRGCEIQGMLDDKGRVIEDGPEPRPNLRGESRTFRVFLDPNQYQQDMTNTIQNGAEDVYETFNIIMRRKPKENNFKAVLETIRNLMNTDCVVPDWLHDIILGYGDPSSAHYSKMPNQIATLDFNDTFLSIEHLKASFPGHNVKVTVEDPALQIPPFRITFPVRSGKGKKRKDADVEDEDTEEAKTLIVEPHVIPNRGPYPYNQPKRNTIQFTHTQIEAIRAGMQPGLTMVVGPPGTGKTDVAVQIISNIYHNFPEQRTLIVTHSNQALNQLFEKIMALDIDERHLLRLGHGEEELETEKDFSRYGRVNYVLARRIELLEEVKRLQKSLGVPGDASYTCETAGYFFLYQVMSRWEEYISKVKNKGSTLPDVTEVSTFFPFHEYFANAPQPIFKGRSYEEDMEIAEGCFRHIKKIFTQLEEFRASELLRSGLDRSKYLLVKEAKIIAMTCTHAALKRHDLVKLGFKYDNILMEEAAQILEIETFIPLLLQNPQDGFSRLKRWIMIGDHHQLPPVIKNMAFQKYSNMEQSLFTRFVRVGVPTVDLDAQGRARASLCNLYNWRYKNLGNLPHVQLLPEFSTANAGLLYDFQLINVEDFQGVGESEPNPYFYQNLGEAEYVVALFMYMCLLGYPADKISILTTYNGQKHLIRDIINRRCGNNPLIGRPNKVTTVDRFQGQQNDYILLSLVRTRAVGHLRDVRRLVVAMSRARLGLYIFARVSLFQNCFELTPAFSQLTARPLHLHIIPTEPFPTTRKNGERPSHEVQIIKNMPQMANFVYNMYMHLIQTTHHYHQTLLQLPPAMVEEGEEVQNQETELETEEEAMTVQADIIPSPTDTSCRQETPAFQTDTTPSETGATSTPEAIPALSETTPTVVGAVSAPAEANTPQDATSAPEETK
[4]
  binding: binds

B6: BUD13 (protein, UniProt Q9BRD0 1-619)
chain: MAAAPPLSKAEYLKRYLSGADAGVDRGSESGRKRRKKRPKPGGAGGKGMRIVDDDVSWTAISTTKLEKEEEEDDGDLPVVAEFVDERPEEVKQMEAFRSSAKWKLLGGHNEDLPSNRHFRHDTPDSSPRRVRHGTPDPSPRKDRHDTPDPSPRRARHDTPDPSPLRGARHDSDTSPPRRIRHDSSDTSPPRRARHDSPDPSPPRRPQHNSSGASPRRVRHDSPDPSPPRRARHGSSDISSPRRVHNNSPDTSRRTLGSSDTQQLRRARHDSPDLAPNVTYSLPRTKSGKAPERASSKTSPHWKESGASHLSFPKNSKYEYDPDISPPRKKQAKSHFGDKKQLDSKGDCQKATDSDLSSPRHKQSPGHQDSDSDLSPPRNRPRHRSSDSDLSPPRRRQRTKSSDSDLSPPRRSQPPGKKAAHMYSGAKTGLVLTDIQREQQELKEQDQETMAFEAEFQYAETVFRDKSGRKRNLKLERLEQRRKAEKDSERDELYAQWGKGLAQSRQQQQNVEDAMKEMQKPLARYIDDEDLDRMLREQEREGDPMANFIKKNKAKENKNKKVRPRYSGPAPPPNRFNIWPGYRWDGVDRSNGFEQKRFARLASKKAVEELAYKWSVEDM
[3]
  binding: binds
